{"source": "PubChem BioAssay AID540256", "about": "(National Center for Advancing Translational Sciences (NCATS), 2011)", "note": "In all, about 300,000 compounds went through this assay and about 3,700 (1.2%) were called active. The shares of active, inactive and inconclusive entries below differ from those in the screen. Calls come from the whole dose curve; tested in HEK293 cells. Potencies of inconclusive entries are doubtful fits and often do not repeat. Potency is the fitted concentration of half-maximal effect."}
{"experiment": "qHTS for Inhibitors of binding or entry into cells for Lassa Virus; note: nearly all actives have a fitted effect of over 50% in size", "conditions": "Lassa virus pseudotype entry inhibition, cell reporter; series mostly up to 37.9 µM"}
{"compound": "Cc1ccc(-c2csc3nc[nH]c(=O)c23)cc1C", "Potency": "inconclusive: 0.631 µM [inhibitor, full curve, poor fit]"}
{"compound": "COC(=O)C1(Cc2ccccc2)NC(c2ccccc2C)C2C(=O)N(c3ccc4c(c3)OCO4)C(=O)C21", "note": "(stereo unspecified)", "Potency": "inconclusive: 0.316 µM [inhibitor, partial curve, poor fit]"}
{"compound": "CC(C)CN(CC(C)C)S(=O)(=O)N1CCC(C(=O)N2CCc3ccccc3C2)CC1", "Potency": "inconclusive: 1.26 µM [inhibitor, single point]"}
{"compound": "CCCCOc1ccc(-c2nn(-c3ccccc3)cc2C2NC(=O)NC(C)=C2C(=O)OC)cc1", "note": "(stereo unspecified)", "Potency": "inconclusive: 5.62 µM [inhibitor, single point]"}
{"compound": "O=C1C=CC(=O)C2C1C1(Cl)C(Cl)=C(Cl)C2(Cl)C1(Cl)Cl", "note": "(stereo unspecified)", "Potency": "inconclusive: 11.2 µM [inhibitor, single point]"}
{"compound": "O=C(Nc1nccs1)c1ccc2ccccc2n1", "Potency": "active: 8.91 µM"}
{"compound": "O=C(CSc1nnnn1C1CCCCC1)N1c2ccccc2Sc2ccccc21", "Potency": "inconclusive: 9.2 µM [inhibitor, partial curve]"}
{"compound": "COc1cc(CNn2c(C)n[nH]c2=S)cc(Br)c1OCc1ccc(F)cc1", "Potency": "inconclusive: 16.4 µM [inhibitor, single point]"}
{"compound": "COc1ccccc1N(C)S(=O)(=O)c1ccc(C(=O)OCC(=O)c2c[nH]c3ccccc23)cc1", "Potency": "inactive"}
{"compound": "COc1ccc(-c2ccc(-c3noc(-c4ccco4)n3)c(OC)n2)cc1", "Potency": "inactive"}
{"compound": "O=C(Nc1ccc(F)cc1)Nc1ccc(N2CCCC2)c(S(=O)(=O)Nc2ccccc2Cl)c1", "Potency": "active: 7.31 µM"}
{"compound": "CCCCNc1nc(Oc2ccc(OCC)nn2)nc(N2CCOCC2)n1", "Potency": "inactive"}
{"compound": "CSc1ncc(Cl)c(C(=O)Nc2ccc(NC(C)=O)cc2)n1", "Potency": "inactive"}
{"compound": "CCOc1ccc(N2CC(NC(=O)c3cccc4ccccc34)CC2=O)cc1", "note": "(stereo unspecified)", "Potency": "inactive"}
{"compound": "CCOC(=O)c1ccc(NC(=O)N2CCN(C(=O)c3ccco3)CC2)cc1", "Potency": "inactive"}
{"compound": "Cc1c(C(=O)N2CCOCC2)cc(C(C)(C)C)n1-c1ccccc1", "Potency": "inconclusive: 11.2 µM [inhibitor, partial curve, poor fit]"}
{"compound": "O=C(COC(=O)COc1ccccc1F)Nc1cccc(S(=O)(=O)N2CCCCC2)c1", "Potency": "inconclusive: 0.708 µM [inhibitor, single point]"}
{"compound": "COc1cc(OC)c(C(=O)NC2CCCc3ccccc32)cc1OC", "note": "(stereo unspecified)", "Potency": "inconclusive: 15.8 µM [inhibitor, single point]"}
{"compound": "COc1ccccc1C(=O)Nc1ccc2ccccc2c1", "Potency": "inconclusive: 11.2 µM [activator, partial curve]"}
{"compound": "Cc1ccccc1-c1nc(CN2CCC(C(=O)NCCC3=CCCCC3)CC2)c(C)o1", "Potency": "inconclusive: 20.6 µM [inhibitor, partial curve, poor fit]"}
{"compound": "O=C(Nc1nnc(COc2ccccc2F)s1)Nc1ccccc1F", "Potency": "inconclusive: 22.4 µM [inhibitor, single point]"}
{"compound": "Cc1cccc(NC(=S)NCc2ccccn2)c1", "Potency": "inactive"}
{"compound": "Cc1ccc(S(=O)(=O)c2cnc(-c3ccccc3)nc2N2CCCCC2)cc1", "Potency": "inconclusive: 8.2 µM [inhibitor, partial curve, poor fit]"}
{"compound": "COc1ccc(NC(=O)C2CCCN(S(=O)(=O)c3ccccc3)C2)c(OC)c1", "note": "(stereo unspecified)", "Potency": "inconclusive: 10 µM [inhibitor, partial curve, poor fit]"}
{"compound": "CN(C)CCOC1c2ccccc2C=Cc2ccccc21", "Potency": "inconclusive: 2.82 µM [inhibitor, full curve]"}
{"compound": "COc1cc(C2c3cc4c(cc3CC3COC(=O)C32)OCO4)cc(OC)c1O", "note": "(stereo unspecified)", "Potency": "inconclusive: 1.26 µM [inhibitor, partial curve, poor fit]"}
{"compound": "Cc1nc2cc(C(=O)N3c4ccccc4CC3C)ccc2s1", "note": "(stereo unspecified)", "Potency": "inconclusive: 3.16 µM [inhibitor, partial curve]"}
{"compound": "CCOCC(=O)Nc1nnc(Cc2ccc(OC)c(OC)c2)s1", "Potency": "inconclusive: 0.073 µM [activator, partial curve, poor fit]"}
{"compound": "COc1ccc(C)cc1NC(=O)CN1CCN(c2ccccc2F)CC1", "Potency": "inconclusive: 12.6 µM [inhibitor, partial curve, poor fit]"}
{"compound": "O=C(CSc1ccccc1)N1CCc2c([nH]c3ccccc23)C1c1ccc(F)cc1", "note": "(stereo unspecified)", "Potency": "inconclusive: 28.2 µM [inhibitor, single point]"}
{"compound": "CC1CCN(S(=O)(=O)c2cn(CC(=O)Nc3cccc(C(F)(F)F)c3)c(=O)c3ccccc23)CC1", "Potency": "inconclusive: 22.4 µM [inhibitor, single point]"}
{"compound": "c1ccc2oc(SCc3nc4ccccc4s3)nc2c1", "Potency": "inconclusive: 5.62 µM [activator, single point]"}
{"compound": "CCOc1ccc(-c2cn3ccccc3n2)cc1", "Potency": "inconclusive: 3.55 µM [inhibitor, single point]"}
{"compound": "Cc1cccc(C)c1OCCn1c(C2CC(=O)N(c3cccc(Cl)c3)C2)nc2ccccc21", "note": "(stereo unspecified)", "Potency": "inconclusive: 35.5 µM [inhibitor, single point]"}
{"compound": "Nc1c(C(=O)Nc2ccc(Cl)c(C(=O)O)c2)sc2nc3c(cc12)CCCC3", "Potency": "inconclusive: 10 µM [inhibitor, partial curve, poor fit]"}
{"compound": "CC(=O)c1c(C)[nH]c(C(=O)Nc2ccc(Cl)cc2)c1C", "Potency": "inconclusive: 11.2 µM [inhibitor, single point]"}
{"compound": "COc1ccc(Nc2cccc(Cl)c2)c(C(=O)O)c1", "Potency": "inconclusive: 20.6 µM [inhibitor, single point]"}
{"compound": "c1ccc(CNc2nc3c(-c4ccccc4)nnn3c3ccccc23)cc1", "Potency": "inconclusive: 11.2 µM [activator, partial curve]"}
{"compound": "COc1ccc([N+](=O)[O-])cc1N(CC(O)CN1CCOCC1)S(=O)(=O)c1ccccc1", "note": "(stereo unspecified)", "Potency": "inconclusive: 3.55 µM [inhibitor, partial curve, poor fit]"}
{"compound": "COc1ccc(NS(=O)(=O)c2cccc(C(=O)N/N=C/c3ccc(O)cc3)c2)cc1", "Potency": "inconclusive: 0.708 µM [inhibitor, single point]"}
{"compound": "COC(=O)Nc1ccc(N=C(N)N[N+](=O)[O-])cc1", "Potency": "inconclusive: 11.2 µM [activator, partial curve, poor fit]"}
